Assay [1] deals with recombinant GPVI-Fc (dimeric; D1 and D2 domains of GPVI fused to the Fc domain from IgG) (human) (UniProt Q9HCN6). Nature of the assay: surface binding assay on GPVI-Fc coated surface, anti-His HRP, normalised to Nb35.
Assay [2] shares this target. As to the kind of experiment: competition ELISA, His-tagged nanobody (100 nM) on GPVI-Fc (10 nM coat), competitor un-tagged Nb2. For orientation: In an ELISA, binding on a coated surface is turned into a signal by an enzyme label.
Assay [3] has the same target. As to the kind of experiment: solid-phase binding assay: GPVI-Fc coated surface, nanobody 100 nM per the legend (1 µM per paragraph 122), anti-His HRP, Fc-surface signal subtracted, normalised to Nb35 [cont) b].

Amino acid sequences for entries named in this document (tags omitted). Residues count along the entry.
UniProt Q9HCN6, residues 22-203: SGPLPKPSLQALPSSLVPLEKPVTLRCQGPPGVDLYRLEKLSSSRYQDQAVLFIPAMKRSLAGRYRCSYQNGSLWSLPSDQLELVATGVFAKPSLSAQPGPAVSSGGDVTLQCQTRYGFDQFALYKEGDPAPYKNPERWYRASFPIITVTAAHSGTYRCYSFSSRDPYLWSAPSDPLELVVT

No constants are given. Whether binding was seen depends on the method and setting. Some binding calls cover weakened binding; strength is not graded here.

B1: Nanobody 54 (Nb54) (VHH)
VHH: QVQLQESGGGLVQPGGSLRLACAASGSVSSINDMGWYRQAPGKQREFVARISRGGLTNYKDSVKGRFTISRDNAKNQVYLQMNSLKPEDTAVYYCNADFRPSSGTFRLSDYWGQGTQVTVSS
Consider B1, for which the binding entry in assay [1] was “binds”.

B2: Nanobody 7 (Nb7) (VHH)
VHH: QVQLQESGGGVVQDGGSLRLSCAASGRTFSSYAMGWFRQAPGKEREFVAAISWSGDSTYSADSVRGRFTISRDNAKNTVYLQMNSLKPEDTAVYYCAADGRNYGLGPLETDSYEYDYWGQGTQVTVSS
For B2, in assay [1], the binding result is listed as “binds”.

B3: Nanobody 11 (Nb11) (VHH)
VHH: QVQLQESGGGVVQTGGSLRLSCVASGFSFEDYGIGWFRQAPGKEREGVSYIKNTDGDTTYADSVKGRFTISSDYAKNTVYLQMNDLEPQDAAVYYCAARPPPLNYYSPYLTPREFSYWGQGTQVTVSS
As to B3, the binding entry in assay [2] and in assay [3] was “binds” throughout.

B4: Nanobody 53 (Nb53) (VHH)
VHH: QVQLQESGGGLVQAGGSLRISCAASGRTFSDYYMGWFRQAPGKEREFVAAISWSGRTTYYTNSVKGRFTISRDNAKNTLYLQMNNLKPEDTAVYRCAARPSNSGAYFARTHDYTDWGQGTQVTVSS
B4: the binding entry in assay [2] and in assay [3] was “binds” throughout.

B5: Nanobody 52 (Nb52) (VHH)
VHH: QVQLQESGGGLVQTGASLRLSCAASGSIFSIDTMGWYRQAPGKQRELVAAITRGGSTNYADSVKGRFTISRDNAKNTVYLQMNSLSPEDTAVYYCNANTGRLAVNYEHDYWGQGTQVTVSS
With B5, in assay [1], the binding entry is recorded as “binds”.

B6: Nanobody 18 (Nb18) (VHH)
VHH: QVQLQESGGGLVQAGGSLRLSCAASGFTFDDYAIGWFRQAPGKEREGVSCISSSDGSTYYADSVKGRFTIARDNAKNTVYLQMNSLKPEETAVYYCAASPLYYSGSYCRETEYDYWGQGTQVTVSS
In the case of B6, the binding entry in assay [1] is “binds”.

B7: Nanobody 30 (Nb30) (VHH)
VHH: QVQLQESGGGFVQAGGSLRLSCVASGRTFSTYDMGWFRQAPGKEREFVASILIGGGTYYADSVKGRFTISRDNAKNTVYLQMNSLKPEDTAVYYCAYRAPSSGAYYSNQRAYDYWGQGTQVTVSS
With B7, in assay [3], the binding entry is on record as “binds”.
